Experimental data: US7956084B2, “Phenyl thiophene carboxamide compounds as inhibitors of the enzyme IKK-2” (AstraZeneca AB, priority 2001, dated 2011)
Some results were stated once for a whole list of compounds, not compound by compound.

Each compound was assayed against T1, IKK-2 (Homo sapiens, UniProt O14920) (assay: IKK-2 Filter Kinase Assay). Settings: 1 μM ATP, 33P ATP, 1-53 GST-IκB substrate, 21° C. for 80 minutes.
T1 sequence (O14920 1-756): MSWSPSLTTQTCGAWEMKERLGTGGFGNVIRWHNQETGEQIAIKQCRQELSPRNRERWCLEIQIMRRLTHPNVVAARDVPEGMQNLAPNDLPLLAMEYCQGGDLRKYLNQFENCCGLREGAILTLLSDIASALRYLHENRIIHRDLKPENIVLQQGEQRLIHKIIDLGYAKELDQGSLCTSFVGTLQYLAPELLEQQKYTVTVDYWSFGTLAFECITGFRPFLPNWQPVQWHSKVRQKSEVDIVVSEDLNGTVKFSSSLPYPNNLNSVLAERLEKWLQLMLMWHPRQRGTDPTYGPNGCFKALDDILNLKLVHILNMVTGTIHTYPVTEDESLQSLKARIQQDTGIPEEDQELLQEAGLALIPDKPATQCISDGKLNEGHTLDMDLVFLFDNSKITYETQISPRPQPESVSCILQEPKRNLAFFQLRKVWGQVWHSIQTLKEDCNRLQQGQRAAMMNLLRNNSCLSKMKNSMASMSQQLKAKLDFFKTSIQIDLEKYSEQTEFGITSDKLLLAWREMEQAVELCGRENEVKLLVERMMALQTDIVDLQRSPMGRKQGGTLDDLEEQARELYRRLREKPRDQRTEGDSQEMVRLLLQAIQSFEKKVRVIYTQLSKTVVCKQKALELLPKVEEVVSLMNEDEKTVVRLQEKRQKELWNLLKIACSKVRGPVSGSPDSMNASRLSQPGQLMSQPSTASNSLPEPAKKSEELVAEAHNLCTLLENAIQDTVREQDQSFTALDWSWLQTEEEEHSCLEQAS
Type: biochemical

IC50, < 10 µM:
CC(C)(COc1ccc(-c2cc(C(N)=O)c(NC(N)=O)s2)cn1)CN1CCCC1 [Example 71, 2-[(Aminocarbonyl)amino]-5-[6-(2,2-dimethyl-3-pyrrolidinylpropoxy)pyridin-3-yl]-3-thiophenecarboxamide]
NC(=O)Nc1sc(-c2ccc(OCC3CCCO3)c(Cl)c2)cc1C(N)=O (centres unmarked) [Example 72, 2-[(Aminocarbonyl)amino]-5-{3-chloro-4-(tetrahydrofuran-2-ylmethoxy)phenyl}-3-thiophenecarboxamide]
NC(=O)Nc1sc(-c2ccc(OCC3CCCO3)cc2)cc1C(N)=O (centres unmarked) [Example 73, 2-[(Aminocarbonyl)amino]-5-{4-(tetrahydrofuran-2-ylmethoxy)phenyl}-3-thiophenecarboxamide]
NC(=O)Nc1sc(-c2ccc(SCC3CC3)nc2)cc1C(N)=O [Example 74, 2-[(Aminocarbonyl)amino]-5-[(6-cyclopropylmethylthio)pyridin-3-yl]-3-thiophenecarboxamide]
COCCOCCOc1ccc(-c2cc(C(N)=O)c(NC(N)=O)s2)cc1C [Example 75, 2-[(Aminocarbonyl)amino]-5-{4-[2-(2-methoxyethoxy)ethoxy]-3-methylphenyl}-3-thiophenecarboxamide]
COCCOCCOc1ccc(-c2cc(C(N)=O)c(NC(N)=O)s2)cc1Cl [Example 76, 2-[(Aminocarbonyl)amino]-5-{3-chloro-4-[2-(2-methoxyethoxy)ethoxy]phenyl}-3-thiophenecarboxamide]
CN1CCN(Cc2ccccc2-c2cc(C(N)=O)c(NC(N)=O)s2)CC1 [Example 77, 2-[(Aminocarbonyl)amino]-5-[2-(4-methylpiperazinylmethyl)phenyl]-3-thiophenecarboxamide]
CC(C)(C)OC(=O)N1CCN(Cc2ccccc2-c2cc(C(N)=O)c(NC(N)=O)s2)CC1 [Example 79, 2-[(Aminocarbonyl)amino]-5-[2-(4-t-butyloxycarbonylpiperazinylmethyl)phenyl]-3-thiophenecarboxamide]
NC(=O)Nc1sc(-c2ccc(CN3CCCC3)cc2)cc1C(N)=O [Example 80, 2-[(Aminocarbonyl)amino]-5-[4-(pyrrolidinylmethyl)phenyl]thiophene-3-carboxamide]
NC(=O)Nc1sc(-c2ccccc2OCCN2CCC(F)(F)CC2)cc1C(N)=O [Example 81, 2-[(Aminocarbonyl)amino]-5-[2-(2-(4,4-difluoropiperidin-1-yl)ethoxy)phenyl]-3-thiophenecarboxamide]
NC(=O)Nc1sc(-c2ccccc2OCCN2CCC(F)(F)C2)cc1C(N)=O [Example 82, 2-[(Aminocarbonyl)amino]-5-[2-(2-(3,3-difluoropyrrolidin-1-yl)ethoxy)phenyl]-3-thiophenecarboxamide]
NC(=O)Nc1cc(-c2ccc(CN3CCOCC3)cc2)sc1C(N)=O [Example 83, 3-[(Aminocarbonyl)amino]-5-[4-(morpholin-4-ylmethyl)phenyl]thiophene-2-carboxamide]
C[C@@H]1CN(Cc2ccc(-c3cc(NC(N)=O)c(C(N)=O)s3)cc2)C[C@H](C)O1 [Example 84, 3-[(Aminocarbonyl)amino]-5-[4-(cis-2,6-dimethylmorpholin-4-ylmethyl)phenyl]thiophene-2-carboxamide]
C[C@@H]1CN(Cc2ccc(-c3cc(C(N)=O)c(NC(N)=O)s3)cc2)C[C@H](C)O1 [Example 85, 2-[(Aminocarbonyl)amino]-6-[4-(cis-2,6-dimethylmorpholin-4-ylmethyl)phenyl]thiophene-3-carboxamide]
NC(=O)Nc1sc(-c2ccc(CN3CCOCC3)nc2)cc1C(N)=O [Example 86, 2-[(Aminocarbonyl)amino]-5-[(6-{4-morpholino}methyl)pyridin-3-yl]thiophene-3-carboxamide]
NC(=O)Nc1sc(-c2ccc(CN3CC4CCC(C3)O4)cc2)cc1C(N)=O [Example 87, 2-[(Aminocarbonyl)amino]-5-[4-(8-oxa-3-azabicyclo[3.2.1]oct-3-ylmethyl)phenyl]thiophene-3-carboxamide]
CC(C)COc1ccc(-c2cc(C(N)=O)c(NC(N)=O)s2)cc1CN1CCOCC1 [Example 88]
NC(=O)Nc1sc(-c2cccc(CN3CCOCC3)c2)cc1C(N)=O [Example 89, 2-[(Aminocarbonyl)amino]-5-[3-(morpholin-4-ylmethyl)phenyl]thiophene-3-carboxamide]
COCC1CN(Cc2ccc(-c3cc(C(N)=O)c(NC(N)=O)s3)cc2)CCO1 (centres unmarked) [Example 90, 2-[(Aminocarbonyl)amino]-5-(4-{[2-(methoxymethyl)morpholin-4-yl]methyl}phenyl)thiophene-3-carboxamide]
NC(=O)Nc1sc(-c2ccc(CN3CCOCC3)c(F)c2)cc1C(N)=O [Example 91, 2-[(Aminocarbonyl)amino]-5-[3-fluoro-4-(morpholin-4-ylmethyl)phenyl]thiophene-3-carboxamide]
NC(=O)Nc1sc(-c2ccc(CN3CCOCC3)c(Cl)c2)cc1C(N)=O [Example 92, 2-[(Aminocarbonyl)amino]-5-[3-chloro-4-(morpholin-4-ylmethyl)phenyl]thiophene-3-carboxamide]
NC(=O)Nc1sc(-c2ccc(CN3CCC(F)(F)CC3)cc2)cc1C(N)=O [Example 93, 2-[(Aminocarbonyl)amino]-5-{4-[(4,4-difluoropiperidin-1-yl)methyl]phenyl}thiophene-3-carboxamide]
CC(c1ccc(-c2cc(C(N)=O)c(NC(N)=O)s2)cc1)N1CCCCC1 (centres unmarked) [Example 94, 2-[(Aminocarbonyl)amino]-5-[4-(1-{piperidin-1-yl}ethyl)phenyl]thiophene-3-carboxamide]
C[C@H](c1ccc(-c2cc(C(N)=O)c(NC(N)=O)s2)cc1)N1CCOCC1 [Example 95, 2-[(Aminocarbonyl)amino]-5-{4-[(1R)-1-morpholin-4-ylethyl]phenyl}thiophene-3-carboxamide]
COCCN1CCN(Cc2ccc(-c3cc(C(N)=O)c(NC(N)=O)s3)cc2)CC1 [Example 96, 2-[(Aminocarbonyl)amino]-5-(4-{[4-(2-methoxyethyl)piperazin-1-yl]methyl}phenyl)thiophene-3-carboxamide]
NC(=O)Nc1sc(-c2ccc(CN3CCCCC3)cc2)cc1C(N)=O [Example 97, 2-[(Aminocarbonyl)amino]-5-[4-(piperidin-1-ylmethyl)phenyl]thiophene-3-carboxamide]
NC(=O)Nc1sc(-c2ccc(CN3C[C@@H]4C[C@H]3CO4)cc2)cc1C(N)=O [Example 98, 2-[(Aminocarbonyl)amino]-5-{4-[(1S,4S)-2-oxa-5-azabicyclo[2.2.1]hept-5-ylmethyl]phenyl}thiophene-3-carboxamide]
CC(=O)N1CCN(Cc2ccc(-c3cc(C(N)=O)c(NC(N)=O)s3)cc2)CC1 [Example 99, 5-{4-[(4-Acetylpiperazin-1-yl)methyl]phenyl}-2-[(aminocarbonyl)amino]thiophene-3-carboxamide]
NC(=O)Nc1sc(-c2ccc(CN3CCCOCC3)cc2)cc1C(N)=O [Example 100, 2-[(Aminocarbonyl)amino]-5-[4-(1,4-oxazepan-4-ylmethyl)phenyl]thiophene-3-carboxamide]
C[C@@H](c1ccc(-c2cc(C(N)=O)c(NC(N)=O)s2)cc1)N1CCOCC1 [Example 101, (1S)-2-((Aminocarbonyl)amino)-5-(4-(1-{morpholin-4-yl}ethyl)phenyl)thiophene-3-carboxamide]
CC(C)(c1ccc(-c2cc(C(N)=O)c(NC(N)=O)s2)cc1)N1CCOCC1 [Example 102, 2-((Aminocarbonyl)amino)-5-(4-(1-methyl-1-{morpholin-4-yl}ethyl)phenyl)thiophene-3-carboxamide]
CN1CCN(Cc2ccc(-c3cc(C(N)=O)c(NC(N)=O)s3)cc2)CC1 [Example 103, 2-[(Aminocarbonyl)amino]-5-[4-((4-methylpiperazin-1-yl)methyl)phenyl]thiophene-3-carboxamide]
CCOC(=O)C1CCCCN1Cc1ccc(-c2cc(C(N)=O)c(NC(N)=O)s2)cc1 (centres unmarked) [Example 104, 2-[(Aminocarbonyl)amino]-5-[4-((2-ethoxycarbonylpiperidin-1-yl)methyl)phenyl]-thiophene-3-carboxamide]
CCN(CC)C(=O)C1CCCN(Cc2ccc(-c3cc(C(N)=O)c(NC(N)=O)s3)cc2)C1 (centres unmarked) [Example 105, 2-[(Aminocarbonyl)amino]-5-[4-((3-diethylaminocarbonylpiperidin-1-yl)methyl)phenyl]-thiophene-3-carboxamide]
NC(=O)Nc1sc(-c2ccc(CN3CCC(O)C3)cc2)cc1C(N)=O (centres unmarked) [Example 106, 2-[(Aminocarbonyl)amino]-5-[4-((3-hydroxypyrrolidin-1-yl)methyl)phenyl]thiophene-3-carboxamide]
